# Screen size: about 360,000 compounds; about 7,500 (2.1%) were called active. Inconclusive means that the source gave no clear call. Such entries were picked first, then a sample of the others. Calls come from the whole dose curve; as a rule, active = well fitted inhibition curve with a large enough effect; inconclusive = small, poorly fitted or top-dose-only effect, or effect the other way; inactive = flat fitted curve, though single readings scatter. Potencies beside an inconclusive call are fits to weak or partial responses and may not hold up.
# Experiment: Nrf2 qHTS screen for inhibitors; note: nearly all actives have a fitted effect of over 60% in size
# Details: A549 ARE-Fluc reporter, luciferase luminescence, 18-24 h; activity change, negative = inhibition: at 46 µM (top of the series)
# How it was run: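 A549 ARE_Fluc cells, 5000/well, 5% FBS OPTI-MEM; compounds in dose-response, 18-24 h at 37 °C/5% CO2; CellTiter-Fluor viability read (Ex 405/Em 525), then BugLite luciferase luminescence = Nrf2 activity.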
# % is set by controls: 0 for no effect and ±100 for the full control effect; potency is the fitted concentration of half-maximal effect.
SMILES,"activity change, negative = inhibition",Potency
Oc1ccc(Nc2nc(-c3ccc(Cl)cc3)nc3ccccc23)cc1,inactive: -28.8%,–
CC(=O)/C(C#N)=C1\NC(=O)C(Cc2ccccc2C)S1 (stereo not drawn),–,"inconclusive: 2.59 µM [activator, full curve, poor fit]"
COc1ccc2oc(C(=O)NCC3CCCO3)c(C)c2c1 (stereo not drawn),–,"inconclusive: 29.1 µM [activator, single point]"
COc1ccc(-c2c(C(C)=O)c(C)nc3sc4c(c23)NC(c2ccccc2)NC4=O)cc1 (stereo not drawn),inactive: 0.355%,–
CCN(CC)c1ccc(NC(=O)CC2Oc3ccccc3NC2=O)c(C)c1 (stereo not drawn),inactive: -12.7%,–
Cc1nn2c(=O)cc(COC(=O)c3ccc(F)cc3)nc2s1,–,"inconclusive: 29.1 µM [activator, single point]"
Cc1ccc(C(C(=O)NCC2CCCO2)N(C(=O)c2snc(C(N)=O)c2N)c2ccc(C)c(C)c2)o1 (stereo not drawn),–,"inconclusive: 25.9 µM [activator, single point]"
COc1ccc(NC(=O)/C(Cl)=C(/Cl)S(=O)Cc2ccccc2)cn1 (stereo not drawn),inactive: -117%,–
COc1ccc(C(=O)c2cn(Cc3cccc(C)c3)c3cc4c(cc3c2=O)OCCO4)cc1OC,–,"inconclusive: 18.4 µM [falling, single point]"
Cc1ccc(-n2cc(-c3ccccc3)c3c(N4CCOCC4)ncnc32)cc1,–,active: 23.1 µM
COc1ccc(CCNC(=O)Cn2ccc3cc(S(=O)(=O)N4CCCCC4)ccc32)cc1OC,–,"inconclusive: 29.1 µM [falling, single point]"
Cc1ccc(N(C(=O)c2cccc(C)c2)S(=O)(=O)c2ccc(Cl)cc2)cc1,–,"inconclusive: 32.6 µM [falling, single point]"
Cn1nnnc1SCCCNCc1ccccc1OCc1ccccc1F,–,"inconclusive: 6.51 µM [falling, partial curve, poor fit]"
CNc1nc2c(C)cccn2c(=O)c1C=NCc1ccccc1,inactive: -2.28%,–
O=C(N=C1SC2CS(=O)(=O)CC2N1c1ccccc1)c1cccc([N+](=O)[O-])c1 (stereo not drawn),–,"inconclusive: 20.6 µM [falling, partial curve, poor fit]"
O=C(C1=C(O)C(=O)N(c2nc3ccc(Cl)cc3s2)C1c1ccco1)c1ccco1 (stereo not drawn),inactive: 1.45%,–
CC(C)(C)NC(=O)COC(=O)c1ccc2c(c1)C(=O)N(Cc1ccco1)C2=O,inactive: 16.8%,–
CCC1(C)Cc2ccccc2-c2nc(NCCCO)n(-c3ccccc3)c(=O)c21 (stereo not drawn),–,"inconclusive: 18.4 µM [falling, single point]"
CCOC(=O)[C@H]1[C@H]2COc3ccc(OC)cc3[C@@H]2N2C(=O)CN(Cc3ccc(C)cc3)C(=O)[C@@]12C,–,"inconclusive: 18.4 µM [activator, partial curve, poor fit]"
COC(C(=O)Nc1ccc(S(=O)(=O)Nc2c(C)cccc2C)cc1)c1ccccc1 (stereo not drawn),–,"inconclusive: 20.6 µM [activator, partial curve, poor fit]"
CCc1ccc(NC(=O)Cn2nnc(C(=O)Nc3cc(C)ccc3OC)c2N)cc1,inactive: 4.86%,–
COc1ccccc1N=c1scc(-c2ccc3c(c2)NC(=O)CO3)n1CC1CCCO1 (stereo not drawn),–,"inconclusive: 20.6 µM [falling, single point]"
N#Cc1ccc(-c2ccc(F)cc2)nc1Sc1ccc(F)cc1,–,"inconclusive: 4.61 µM [falling, full curve, poor fit]"

SMILES,"activity change, negative = inhibition",Potency
CC(C)n1nc(C(=O)OCC(=O)c2c[nH]c3ccccc23)c2ccccc2c1=O,–,"inconclusive: 29.1 µM [falling, single point]"
Nc1nc(N)c(Cc2ccc(Cl)cc2Cl)c(N)n1,–,active: 18.4 µM
Cc1cc(=O)oc2cc(NS(=O)(=O)c3ccc(F)cc3)ccc12,–,"inconclusive: 18.4 µM [falling, single point]"
Cc1ccc(C(=O)NCCSc2c[nH]c3ccccc23)cc1C,inactive: -4.38% [at 9.27 µM],–
NC(=O)CN1CCN(CCN2C(=O)c3cccc4cccc(c34)C2=O)CC1,inactive: -11.5%,–
CCOc1ccc(N(CC)C(=O)c2cc3c(s2)-c2ccc(Cl)cc2SC3)cc1,–,active: 16.4 µM
Cc1cc(C)cc(NC(=O)CSc2oc(-c3cccs3)nc2S(=O)(=O)c2ccc(Br)cc2)c1,inactive: 0.512% [at 9.27 µM],–
Cc1nc2ccccc2c(=O)n1NCc1cc(Br)cs1,inactive: -12.2%,–
O=C(c1ccc(N2CCOCC2)c([N+](=O)[O-])c1)N1CCN(c2ccccc2)CC1,–,"inconclusive: 32.6 µM [falling, partial curve, poor fit]"
O=C(/C=C/c1ccc2c(c1)OCO2)NCc1ccncc1,–,"inconclusive: 13 µM [activator, partial curve, poor fit]"
CCN(C(=O)Cn1cc(C(C)=O)c2ccccc21)c1ccccc1,–,"inconclusive: 20.6 µM [falling, partial curve]"
COC(=O)c1sc2cccc(F)c2c1S(=O)(=O)NC(C)c1ccccc1 (stereo not drawn),inactive: -7.04%,–
COC(=O)c1ccccc1NC(=O)Nc1cccnc1,–,"inconclusive: 3.26 µM [activator, partial curve, poor fit]"
Cc1cccn2c(=O)c3cc(C(=O)NC(C)(C)C)n(C)c3nc12,–,"inconclusive: 16.4 µM [activator, single point]"
CC1(C)CC(=O)C2=C(C1)NC1=C(C(=O)c3ccccc31)C2c1cccnc1 (stereo not drawn),inactive: -15.8%,–
COc1ccccc1OCCn1cc(C(=O)c2ccco2)c2ccccc21,–,"inconclusive: 29.1 µM [falling, single point]"
O=C(CSc1nnc(Cc2ccccc2)c(=O)[nH]1)Nc1ccccc1,inactive: 4.55%,–
NC(=O)c1ccccc1NC(=O)CCn1c(=S)oc2ccccc21,–,"inconclusive: 1.16 µM [falling, full curve, poor fit]"
Cc1ccc(C(=O)N2CCN(Cc3ccccc3)CC2)cc1S(=O)(=O)N1CCOCC1,–,"inconclusive: 13 µM [activator, single point]"
O=C(c1cnsn1)N1CCC(CO)(Cc2cccc(F)c2)CC1,–,"inconclusive: 5.17 µM [activator, full curve]"
CCOc1ccc(NC(=O)c2sc3nc4n(c(=O)c3c2C)CCCC4)cc1,–,"inconclusive: 10.3 µM [falling, single point]"
CCOC(=O)C(CC(=O)c1ccccc1)CC(=O)c1ccccc1,–,"inconclusive: 20.6 µM [activator, partial curve]"
Cc1ccc(-c2cc(C(=O)O)c3cc(Br)ccc3n2)o1,inactive: 7.89%,–

SMILES,"activity change, negative = inhibition",Potency
O=S(=O)(Nc1ccc(S(=O)(=O)N2CCCCC2)cc1)c1ccc(Br)s1,–,"inconclusive: 18.4 µM [falling, partial curve, poor fit]"
CC(C)CN(CCCNC(=O)CN1C(=O)COc2ccc(S(=O)(=O)N3CCCC3)cc21)CC(C)C,inactive: -7.96%,–
CCSc1ncc(Cl)c(C(=O)Nc2ccc(S(=O)(=O)N3CCCCC3CC)cc2)n1 (stereo not drawn),–,"inconclusive: 20.6 µM [falling, partial curve, poor fit]"
COc1ccc(OC)c(Cc2nnc(CCC(=O)NC3CCCCCCC3)o2)c1,–,"inconclusive: 18.4 µM [activator, partial curve]"
Cc1ccc(CN(C(=O)COc2cccc(Cl)c2)c2ccccn2)o1,inactive: 2.61%,–
COc1cccc(CNCCc2c[nH]c3ccccc23)c1OCc1ccccc1F,–,"inconclusive: 29.1 µM [falling, single point]"
COc1cc(O)ccc1-c1nc2ccc(Br)cn2c1Nc1ccccc1C,inactive: -12.1%,–
CC(NC(=S)Nc1ccc(OC(F)F)c(Cl)c1)C(C)(C)C (stereo not drawn),–,"inconclusive: 29.1 µM [falling, single point]"
CC(/C=N/n1c(-c2ccc(C)cc2)n[nH]c1=S)=C\c1ccco1,inactive: 13.2%,–
N#CCc1nc(-c2cc3ccccc3oc2=O)cs1,–,"inconclusive: 18.4 µM [activator, partial curve, poor fit]"
Cc1ccc(C(=O)OCC(=O)Nc2cccc(S(=O)(=O)N3CCOCC3)c2)o1,inactive: -3.79%,–
CC(=O)CSc1ccc(C(=O)O)cn1,–,"inconclusive: 20.6 µM [falling, partial curve, poor fit]"
COc1ccc(S(=O)(=O)Nc2ccc(N(C)C(C)=O)cc2)cc1,–,"inconclusive: 1.84 µM [falling, full curve, poor fit]"
O=S(=O)(Nc1ccc(-c2ccc(N3CCOCC3)nn2)cc1)c1ccc(Cl)c(Cl)c1,–,"inconclusive: 29.1 µM [falling, single point]"
COc1ccc(-c2nnc(-c3ccc4ccccc4c3)o2)cc1,–,"inconclusive: 18.4 µM [activator, partial curve]"
COc1ccc(NS(=O)(=O)c2cccc3cccnc23)cc1OC,–,"inconclusive: 16.4 µM [falling, partial curve]"
Cc1ccc(C(CC(=O)N2CCOCC2)c2ccco2)cc1 (stereo not drawn),–,"inconclusive: 29.1 µM [activator, partial curve]"
Cc1nnnn1/C(=C\c1ccccc1)C(=O)OCC(=O)NC1CCCCC1,–,"inconclusive: 16.4 µM [falling, single point]"
Cc1cc(C(=O)N2CCCC(C(=O)c3cccc(C(F)(F)F)c3)C2)nc(C)n1 (stereo not drawn),–,"inconclusive: 18.4 µM [activator, partial curve, poor fit]"
COc1ccc(CCNC(=O)C2CCN(Cc3nc(-c4cccc(Cl)c4)oc3C)CC2)cc1OC,–,"inconclusive: 20.6 µM [falling, single point]"
CC1(C)SC(=S)N(/N=C/c2ccc(O)cc2)C1N(O)C(=O)Nc1ccc([N+](=O)[O-])cc1 (stereo not drawn),–,active: 16.4 µM
Cc1nc(NC(=O)c2ccc(Cl)cc2)sc1Cc1ccc2c(c1)OCO2,–,"inconclusive: 29.1 µM [activator, single point]"

# Rewritten as tab-separated lines: 3 of the compounds above.
SMILES	activity change, negative = inhibition	Potency
CC(=O)CSc1ccc(C(=O)O)cn1	–	inconclusive: 20.6 µM [falling, partial curve, poor fit]
COc1ccc(S(=O)(=O)Nc2ccc(N(C)C(C)=O)cc2)cc1	–	inconclusive: 1.84 µM [falling, full curve, poor fit]
O=S(=O)(Nc1ccc(-c2ccc(N3CCOCC3)nn2)cc1)c1ccc(Cl)c(Cl)c1	–	inconclusive: 29.1 µM [falling, single point]

# Reference: PubChem BioAssay AID504444 (National Center for Advancing Translational Sciences (NCATS), 2011)
